Measurements reported in PubChem BioAssay AID652272 (Drosophila RNAi Screening Center, 2013)
The deposit covers about 21,000 reagents; this is an unselected part of those with a known target gene and a result. Over the whole deposit, 503 (2.4%) were called active. 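Raw plate light values, not normalised; calls rest on replicate z-scores that were not deposited; hits include reporter decreases as well as increases.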 The numbers tell different reagents against one gene apart. Names joined by + are all predicted targets of the reagent. Not given: the amount of reagent, the time to read-out.

Screen: 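Genes whose knock-down decreases or increases Hedgehog reporter output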 (primary screen)
System: Drosophila clone 8 (Cl8) cells
Reagents: long dsRNA against Drosophila genes
Measurement: 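Firefly light from a Hedgehog-responsive ptc promoter reporter and Renilla reference light, both read on a plate reader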
Reading the numbers: firefly Hh reporter signal: higher = more ptc reporter light; Renilla reference signal: higher = more Renilla control light
Call rule: 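Called a hit if the two-replicate mean z-score lies below -2 or above +3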
Meaning of the calls: active = hit: reporter lowered or raised; inactive = not a hit

| predicted target | reagent | firefly Hh reporter signal, replicate 1 | firefly Hh reporter signal, replicate 2 | firefly Hh reporter signal, replicate 3 | Renilla reference signal, replicate 1 | Renilla reference signal, replicate 2 | outcome |
| --- | --- | --- | --- | --- | --- | --- | --- |
| mav | 1 | 90572 | 2.69e5 | – | 2748 | 9293 | inactive |
| EndoA | 1 | 62422 | 79562 | – | 2339 | 2711 | inactive |
| Dro | 1 | 1.39e5 | 85510 | – | 3616 | 6137 | inactive |
| CG32022 | 1 | 35201 | 61285 | – | 4829 | 4369 | inactive |
| CG7695 | 1 | 6.78e5 | 94848 | – | 34076 | 2620 | inactive |
| glu | 1 | 92117 | 46848 | – | 3649 | 2054 | inactive |
| CG5080 | 1 | 75352 | 47940 | – | 2813 | 2498 | inactive |
| Act42A | 1 | 57382 | 44721 | – | 869 | 3860 | inactive |
| CG5707 | 1 | 92597 | 1.03e5 | – | 4619 | 3177 | inactive |
| Pfdn2 | 1 | 50524 | 33786 | 54361 | 3015 | 3659 | inactive |
| CG14692 | 1 | 65740 | 1.21e5 | – | 1537 | 3504 | inactive |
| Pex11c | 1 | 6.56e5 | 97283 | – | 30930 | 3187 | inactive |
| twin | 1 | 1.06e5 | 97672 | – | 5269 | 4176 | inactive |
| twin | 2 | 7.53e5 | 1.79e5 | – | 44663 | 5952 | inactive |
| CG30479 | 1 | 70972 | 29392 | – | 2048 | 2577 | inactive |
| lncRNA:CR31781 | 1 | 1.35e5 | 71926 | – | 4737 | 3168 | inactive |
| lncRNA:CR31781 | 2 | 86936 | 50820 | – | 2362 | 4324 | inactive |
| CG14572 | 1 | 1.37e5 | 1.36e5 | – | 4517 | 7665 | inactive |
| nom | 1 | 67712 | 95585 | – | 2545 | 4951 | inactive |
| Ccdc56 + mtTFB1 | 1 | 1.39e5 | 1.47e5 | – | 5571 | 6272 | inactive |
| CG12054 | 1 | 24688 | 16500 | – | 1062 | 913 | active |
| CG33981 + fab1 | 1 | 1.24e5 | 1.04e5 | – | 5784 | 4324 | inactive |
| PTP-ER | 1 | 1.21e5 | 40672 | – | 4289 | 1697 | inactive |
| Grl43a | 1 | 82629 | 38549 | – | 2246 | 3661 | inactive |
| CG15394 | 1 | 85520 | 54880 | – | 1992 | 1250 | inactive |
| CG31431 | 1 | 7.47e5 | 1.68e5 | – | 38176 | 2582 | inactive |
| by | 1 | 49756 | 71637 | – | 1661 | 1996 | inactive |
| CG8319 | 1 | 63735 | 1.57e5 | – | 1621 | 3160 | inactive |
| Br140 | 1 | 83557 | 49019 | – | 3034 | 2228 | inactive |
| CG14829 | 1 | 97920 | 65785 | – | 10698 | 4864 | inactive |
| CG31675 | 1 | 1.53e5 | 3.15e5 | – | 4005 | 12807 | inactive |
| CG3706 | 1 | 1.24e5 | 3.33e5 | – | 4469 | 13565 | inactive |
| CG31199 | 1 | 1.28e5 | 64528 | – | 5250 | 2692 | inactive |
| akirin | 1 | 76331 | 25881 | – | 5361 | 2672 | active |
| CG3088 | 1 | 1.20e5 | 73271 | – | 4616 | 3187 | inactive |
| edin | 1 | 2.23e5 | – | – | 5738 | – | inactive |
| ref(2)P | 1 | 82945 | 47960 | – | 2221 | 3931 | inactive |
| Trmt61 | 1 | 4.59e5 | 1.21e5 | – | 22294 | 3483 | inactive |
| Dyro | 1 | 36522 | 33536 | 23297 | 4652 | 2118 | inactive |
